Results deposited as PubChem BioAssay AID1259405 (NCATS, 2018).

- Purpose: 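Silenced genes that increase secreted GFP made by CHO cells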 (primary screen)
- System: Chinese hamster CHO-K1 ovary cells with stable secreted eGFP expression
- Knock-down reagent: single siRNA against mouse genes, 0.8 pmol siRNA per well (2 µl of 400 nM stock)
- Time to read-out: 3 days
- Measurement: 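Percent of the per-plate non-targeting control median for intracellular GFP per well by laser scanning cytometry and for cell viability by ATP luminescence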
- Scale: GFP, % of control: higher = more GFP per well, higher productivity; viability (ATP), % of control: higher = more viable cells (more ATP)
- Rule for the call: 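Called active when intracellular GFP, relative to negative control, is at or above 120%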
This is a random part of about 50,000 reagents tested. About 4,000 of them (8%) were called active. 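Mouse siRNA library applied to hamster cells; one well for each siRNA.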 A number with no mark means an inactive call. The numbers tell different reagents against one gene apart.

Clip1 #1: GFP, % of control = 70.3; viability (ATP), % of control = 96.8
Clip1 #2: GFP, % of control = 76.3; viability (ATP), % of control = 85.9
Rhbdl2 #1: GFP, % of control = 71; viability (ATP), % of control = 68.8
Rhbdl2 #2: GFP, % of control = 100; viability (ATP), % of control = 89.4
Rhbdl2 #3: GFP, % of control = 85.2; viability (ATP), % of control = 95.8
Rcl1 #1: GFP, % of control = 80.2; viability (ATP), % of control = 80.9
Rcl1 #2: GFP, % of control = 97.4; viability (ATP), % of control = 88.1
Rcl1 #3: GFP, % of control = 96; viability (ATP), % of control = 88.9
Msantd5f6 #1: GFP, % of control = 50.6; viability (ATP), % of control = 76.7
Msantd5f6 #2: GFP, % of control = 61.2; viability (ATP), % of control = 68.9
Msantd5f6 #3: GFP, % of control = 67.5; viability (ATP), % of control = 54.5
Trpm5 #1: GFP, % of control = 110; viability (ATP), % of control = 85.6
Trpm5 #2: GFP, % of control = 71.3; viability (ATP), % of control = 64.8
Trpm5 #3: GFP, % of control = 48.7; viability (ATP), % of control = 97.7
Oxsm #1: GFP, % of control = 219 (active); viability (ATP), % of control = 149
Oxsm #2: GFP, % of control = 52.2; viability (ATP), % of control = 114
Oxsm #3: GFP, % of control = 75.4; viability (ATP), % of control = 125
Adi1 #1: GFP, % of control = 80; viability (ATP), % of control = 95
Adi1 #2: GFP, % of control = 134 (active); viability (ATP), % of control = 90
Adi1 #3: GFP, % of control = 135 (active); viability (ATP), % of control = 60.3
Mettl24 #1: GFP, % of control = 40.6; viability (ATP), % of control = 37.2
Mettl24 #2: GFP, % of control = 82.9; viability (ATP), % of control = 91.8
Mettl24 #3: GFP, % of control = 77.5; viability (ATP), % of control = 132
Dyrk1b: GFP, % of control = 139 (active); viability (ATP), % of control = 120
Ndufa12 #1: GFP, % of control = 83.8; viability (ATP), % of control = 74.7
Ndufa12 #2: GFP, % of control = 62.1; viability (ATP), % of control = 62.2
Ndufa12 #3: GFP, % of control = 86.6; viability (ATP), % of control = 75.6
